Source: the supplement of paper PMC10849652
Some of the results follow.

By UniProt entry, the sequences of proteins in these tests, tags left out. Where a name states a change or a piece, a line headed by the entry shows the natural chain unless it says otherwise.
UniProt Q9BWD3: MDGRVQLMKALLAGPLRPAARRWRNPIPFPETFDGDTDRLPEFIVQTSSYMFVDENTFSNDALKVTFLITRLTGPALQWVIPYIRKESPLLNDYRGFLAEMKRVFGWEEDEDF
UniProt Q86WX3: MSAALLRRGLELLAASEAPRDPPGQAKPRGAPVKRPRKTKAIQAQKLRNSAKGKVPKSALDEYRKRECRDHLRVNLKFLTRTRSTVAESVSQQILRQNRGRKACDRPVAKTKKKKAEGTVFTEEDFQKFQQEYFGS
UniProt Q9NQC3: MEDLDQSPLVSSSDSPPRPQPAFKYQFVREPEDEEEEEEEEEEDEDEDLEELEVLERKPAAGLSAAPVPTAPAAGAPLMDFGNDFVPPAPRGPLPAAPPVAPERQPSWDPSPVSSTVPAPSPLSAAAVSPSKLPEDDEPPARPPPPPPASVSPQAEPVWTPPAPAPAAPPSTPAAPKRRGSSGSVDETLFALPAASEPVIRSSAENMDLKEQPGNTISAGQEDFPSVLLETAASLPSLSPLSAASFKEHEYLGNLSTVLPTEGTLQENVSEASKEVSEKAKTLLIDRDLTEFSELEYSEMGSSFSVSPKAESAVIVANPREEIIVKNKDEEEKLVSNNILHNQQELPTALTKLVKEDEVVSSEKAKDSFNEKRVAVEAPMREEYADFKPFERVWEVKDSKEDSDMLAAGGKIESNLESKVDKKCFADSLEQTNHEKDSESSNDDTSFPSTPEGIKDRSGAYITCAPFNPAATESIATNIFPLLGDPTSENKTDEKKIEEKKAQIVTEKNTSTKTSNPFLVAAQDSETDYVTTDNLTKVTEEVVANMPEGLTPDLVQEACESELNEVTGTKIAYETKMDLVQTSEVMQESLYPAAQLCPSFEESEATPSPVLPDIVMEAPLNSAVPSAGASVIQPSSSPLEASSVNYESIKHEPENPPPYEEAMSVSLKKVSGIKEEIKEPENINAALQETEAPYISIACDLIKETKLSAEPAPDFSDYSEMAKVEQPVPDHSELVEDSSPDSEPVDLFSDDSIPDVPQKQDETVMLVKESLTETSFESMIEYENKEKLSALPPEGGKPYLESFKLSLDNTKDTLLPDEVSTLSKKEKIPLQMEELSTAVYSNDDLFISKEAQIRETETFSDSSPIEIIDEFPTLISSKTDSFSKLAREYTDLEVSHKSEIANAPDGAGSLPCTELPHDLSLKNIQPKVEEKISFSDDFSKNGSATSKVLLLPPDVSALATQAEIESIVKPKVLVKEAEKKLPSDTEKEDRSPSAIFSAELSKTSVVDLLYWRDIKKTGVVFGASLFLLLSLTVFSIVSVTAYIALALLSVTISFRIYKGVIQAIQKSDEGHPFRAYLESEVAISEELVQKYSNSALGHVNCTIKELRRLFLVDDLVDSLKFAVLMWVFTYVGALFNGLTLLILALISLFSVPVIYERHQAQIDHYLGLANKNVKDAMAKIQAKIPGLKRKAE
UniProt P28702: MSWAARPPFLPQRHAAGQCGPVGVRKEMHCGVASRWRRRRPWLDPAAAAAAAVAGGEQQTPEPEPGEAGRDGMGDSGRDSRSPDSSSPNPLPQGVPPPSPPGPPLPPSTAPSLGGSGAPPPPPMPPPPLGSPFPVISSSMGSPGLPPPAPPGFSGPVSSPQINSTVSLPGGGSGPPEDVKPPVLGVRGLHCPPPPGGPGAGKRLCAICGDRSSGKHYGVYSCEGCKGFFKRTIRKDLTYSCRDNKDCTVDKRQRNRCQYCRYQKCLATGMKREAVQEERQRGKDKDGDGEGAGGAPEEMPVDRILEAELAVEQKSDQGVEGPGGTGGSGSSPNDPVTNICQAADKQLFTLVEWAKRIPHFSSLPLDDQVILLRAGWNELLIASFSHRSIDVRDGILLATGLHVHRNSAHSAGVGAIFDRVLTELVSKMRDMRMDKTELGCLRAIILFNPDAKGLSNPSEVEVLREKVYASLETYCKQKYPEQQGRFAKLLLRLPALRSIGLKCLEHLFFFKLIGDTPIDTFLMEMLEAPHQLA
UniProt Q9HCY8: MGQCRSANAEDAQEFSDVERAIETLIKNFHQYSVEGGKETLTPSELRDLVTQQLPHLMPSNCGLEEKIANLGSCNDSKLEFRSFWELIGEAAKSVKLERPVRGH
UniProt A6ZKI3: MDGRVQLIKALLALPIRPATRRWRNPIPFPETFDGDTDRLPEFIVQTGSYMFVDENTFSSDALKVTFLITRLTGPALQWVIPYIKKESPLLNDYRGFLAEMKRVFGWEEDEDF
UniProt Q9UJJ7: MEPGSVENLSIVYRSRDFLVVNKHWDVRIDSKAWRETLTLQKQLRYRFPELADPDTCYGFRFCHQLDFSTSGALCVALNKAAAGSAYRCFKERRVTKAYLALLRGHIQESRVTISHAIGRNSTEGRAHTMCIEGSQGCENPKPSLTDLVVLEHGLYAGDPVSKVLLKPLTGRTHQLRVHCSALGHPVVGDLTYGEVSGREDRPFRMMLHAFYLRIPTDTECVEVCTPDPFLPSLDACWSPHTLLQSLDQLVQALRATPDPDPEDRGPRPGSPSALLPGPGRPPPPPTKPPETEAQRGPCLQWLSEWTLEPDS
UniProt Q9UBS0: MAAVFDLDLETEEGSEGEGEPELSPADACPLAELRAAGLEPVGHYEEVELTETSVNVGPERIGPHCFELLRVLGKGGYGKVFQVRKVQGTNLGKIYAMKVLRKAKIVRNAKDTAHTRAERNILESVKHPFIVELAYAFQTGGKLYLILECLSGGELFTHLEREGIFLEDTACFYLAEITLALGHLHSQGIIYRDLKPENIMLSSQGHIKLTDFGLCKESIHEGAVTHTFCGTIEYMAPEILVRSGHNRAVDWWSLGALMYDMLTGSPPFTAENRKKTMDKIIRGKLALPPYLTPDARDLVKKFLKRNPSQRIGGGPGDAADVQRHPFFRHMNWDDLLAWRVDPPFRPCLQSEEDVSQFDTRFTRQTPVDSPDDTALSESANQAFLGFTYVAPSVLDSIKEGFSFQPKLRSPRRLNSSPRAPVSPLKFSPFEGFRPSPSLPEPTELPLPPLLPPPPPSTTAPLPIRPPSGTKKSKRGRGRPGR
UniProt P51812, whole entry, looked up: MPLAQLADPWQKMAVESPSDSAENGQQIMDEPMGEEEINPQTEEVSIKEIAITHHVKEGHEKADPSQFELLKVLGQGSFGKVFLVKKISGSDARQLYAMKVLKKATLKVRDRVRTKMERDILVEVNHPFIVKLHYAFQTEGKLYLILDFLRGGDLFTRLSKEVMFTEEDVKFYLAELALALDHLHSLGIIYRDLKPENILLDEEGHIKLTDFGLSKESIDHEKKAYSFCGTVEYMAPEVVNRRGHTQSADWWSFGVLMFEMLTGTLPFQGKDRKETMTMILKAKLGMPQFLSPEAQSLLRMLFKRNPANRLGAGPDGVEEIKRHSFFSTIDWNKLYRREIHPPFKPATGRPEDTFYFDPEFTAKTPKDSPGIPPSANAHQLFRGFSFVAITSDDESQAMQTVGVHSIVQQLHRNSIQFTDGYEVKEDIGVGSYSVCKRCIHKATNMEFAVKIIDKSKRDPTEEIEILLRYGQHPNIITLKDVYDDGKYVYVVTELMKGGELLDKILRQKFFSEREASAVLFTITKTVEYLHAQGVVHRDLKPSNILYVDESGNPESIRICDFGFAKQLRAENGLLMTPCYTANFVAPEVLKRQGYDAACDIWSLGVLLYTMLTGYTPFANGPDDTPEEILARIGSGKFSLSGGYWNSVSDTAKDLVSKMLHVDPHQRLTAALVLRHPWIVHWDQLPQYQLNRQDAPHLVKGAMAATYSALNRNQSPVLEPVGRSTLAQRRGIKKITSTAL
UniProt Q6P087: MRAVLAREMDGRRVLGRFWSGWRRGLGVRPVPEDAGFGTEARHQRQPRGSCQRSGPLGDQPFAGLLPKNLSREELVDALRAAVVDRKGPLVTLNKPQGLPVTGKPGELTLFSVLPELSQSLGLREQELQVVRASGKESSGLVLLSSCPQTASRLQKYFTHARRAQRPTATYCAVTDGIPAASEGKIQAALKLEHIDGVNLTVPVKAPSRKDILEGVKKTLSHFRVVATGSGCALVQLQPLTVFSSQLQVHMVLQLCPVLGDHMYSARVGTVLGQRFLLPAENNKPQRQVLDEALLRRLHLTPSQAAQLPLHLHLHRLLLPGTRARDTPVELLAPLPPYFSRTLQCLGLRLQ
UniProt P57060: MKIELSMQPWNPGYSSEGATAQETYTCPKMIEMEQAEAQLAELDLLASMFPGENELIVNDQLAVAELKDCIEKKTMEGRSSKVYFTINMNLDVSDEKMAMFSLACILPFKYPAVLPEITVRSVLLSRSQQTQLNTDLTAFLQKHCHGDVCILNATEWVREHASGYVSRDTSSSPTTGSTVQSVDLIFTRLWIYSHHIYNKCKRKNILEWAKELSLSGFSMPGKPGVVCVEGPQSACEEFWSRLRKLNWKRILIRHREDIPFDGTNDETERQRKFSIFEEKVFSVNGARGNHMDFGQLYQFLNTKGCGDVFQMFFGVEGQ
UniProt Q9NYV6: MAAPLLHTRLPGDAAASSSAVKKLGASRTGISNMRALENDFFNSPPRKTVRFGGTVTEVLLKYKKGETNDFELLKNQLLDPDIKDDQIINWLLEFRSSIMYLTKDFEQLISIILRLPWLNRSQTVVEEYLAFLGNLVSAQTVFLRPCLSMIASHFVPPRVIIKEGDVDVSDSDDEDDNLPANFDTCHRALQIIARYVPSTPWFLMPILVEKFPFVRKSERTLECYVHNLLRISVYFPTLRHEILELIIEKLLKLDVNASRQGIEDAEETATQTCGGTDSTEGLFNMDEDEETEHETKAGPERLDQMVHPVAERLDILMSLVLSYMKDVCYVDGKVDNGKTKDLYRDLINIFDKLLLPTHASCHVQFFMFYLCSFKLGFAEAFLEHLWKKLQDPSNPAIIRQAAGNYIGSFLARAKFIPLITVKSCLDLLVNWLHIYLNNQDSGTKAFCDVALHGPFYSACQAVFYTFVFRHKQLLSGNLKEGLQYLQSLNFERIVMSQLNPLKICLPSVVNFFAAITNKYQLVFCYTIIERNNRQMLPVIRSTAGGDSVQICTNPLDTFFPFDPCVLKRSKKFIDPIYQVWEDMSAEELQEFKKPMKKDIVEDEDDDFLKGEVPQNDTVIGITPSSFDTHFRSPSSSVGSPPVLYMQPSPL
UniProt Q9P2E9: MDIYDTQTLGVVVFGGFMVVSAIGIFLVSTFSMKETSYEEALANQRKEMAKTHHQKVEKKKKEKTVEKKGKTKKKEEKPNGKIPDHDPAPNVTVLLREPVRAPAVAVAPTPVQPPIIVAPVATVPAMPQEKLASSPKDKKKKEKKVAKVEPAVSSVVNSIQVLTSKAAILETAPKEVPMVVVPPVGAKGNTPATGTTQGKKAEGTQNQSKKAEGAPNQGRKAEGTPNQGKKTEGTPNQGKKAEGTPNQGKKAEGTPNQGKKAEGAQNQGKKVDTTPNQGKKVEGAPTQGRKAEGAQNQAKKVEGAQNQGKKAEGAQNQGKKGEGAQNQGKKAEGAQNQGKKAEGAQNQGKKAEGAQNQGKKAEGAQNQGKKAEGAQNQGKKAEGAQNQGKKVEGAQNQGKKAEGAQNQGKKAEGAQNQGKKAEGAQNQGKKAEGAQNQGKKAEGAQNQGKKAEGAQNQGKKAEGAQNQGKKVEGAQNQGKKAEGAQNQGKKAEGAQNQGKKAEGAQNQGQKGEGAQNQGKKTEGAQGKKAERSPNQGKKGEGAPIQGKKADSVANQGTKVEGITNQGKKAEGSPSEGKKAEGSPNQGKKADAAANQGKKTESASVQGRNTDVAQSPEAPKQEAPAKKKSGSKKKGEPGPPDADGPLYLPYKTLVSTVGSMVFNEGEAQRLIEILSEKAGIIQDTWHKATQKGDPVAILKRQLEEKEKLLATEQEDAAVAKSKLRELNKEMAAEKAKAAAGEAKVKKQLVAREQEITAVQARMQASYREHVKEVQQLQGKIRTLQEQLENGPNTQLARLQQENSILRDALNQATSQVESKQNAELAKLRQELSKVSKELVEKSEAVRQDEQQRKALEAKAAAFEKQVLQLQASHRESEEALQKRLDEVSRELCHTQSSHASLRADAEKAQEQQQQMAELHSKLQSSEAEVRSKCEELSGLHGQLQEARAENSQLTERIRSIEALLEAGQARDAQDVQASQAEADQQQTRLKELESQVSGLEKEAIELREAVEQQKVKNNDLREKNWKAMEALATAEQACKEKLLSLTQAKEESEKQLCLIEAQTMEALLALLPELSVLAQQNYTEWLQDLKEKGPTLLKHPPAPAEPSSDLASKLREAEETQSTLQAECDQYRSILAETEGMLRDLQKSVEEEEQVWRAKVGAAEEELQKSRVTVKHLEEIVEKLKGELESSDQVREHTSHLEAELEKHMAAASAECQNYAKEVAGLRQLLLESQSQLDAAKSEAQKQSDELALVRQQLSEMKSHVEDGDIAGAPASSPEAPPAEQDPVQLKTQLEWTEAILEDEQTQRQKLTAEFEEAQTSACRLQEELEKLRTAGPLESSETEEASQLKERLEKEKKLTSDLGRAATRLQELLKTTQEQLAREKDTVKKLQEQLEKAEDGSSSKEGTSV

What follows are targets tested with COC(=O)[C@H](CCSC)NC(=O)C1=C(C=C(C=C1)NC[C@H](CS)N)C2=CC=CC=C2 (assay: log2 fold change, soluble protein after heating vs DMSO (PISA); higher = thermal stabilisation; K562 lysate, 10 uM; active = over 0.2 and 3.5 SD of the protein, either way, in both replicates (recomputed)).
Outline: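 A 30 min treatment with 10 μM compound was applied to crude K562 extract at 1 mg/mL protein in PBS pH 7.4 with 1 mM MgCl2. Heating for 3 min spanned 48°C-58°C, after which aliquots were pooled, adjusted to 0.5% NP-40 at 4°C and spun at 21,000xg for 90 min. TMTpro 16plex LC-MS/MS of the supernatant, with channel sums equalised, gave values recorded as log-two fold change in thermal stability against solvent controls, from duplicates.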

log2 fold change, inactive:
RTL8A (UniProt Q9BWD3) -0.141
RPS19BP1 (UniProt Q86WX3) 0.16
RPS7, A0A2R8Y623 0.41
RTN4 isoform 3 (UniProt Q9NQC3) 0.042
RRP36 (UniProt Q96EU6) -0.183
RPS19 (UniProt M0R2L9) 0
RPS3 (UniProt E9PJN9) 0.049
RXRB isoform 3 (UniProt P28702) -0.042
S100A14 (UniProt Q9HCY8) 0.219
RTL8C (UniProt A6ZKI3) 0.207
RPUSD1 (UniProt Q9UJJ7) 0.127
RPS6KB2 (UniProt Q9UBS0) 0.066
RPS6KA3 (UniProt P51812) 0.056
RPUSD3 (UniProt Q6P087) 0.064
RWDD2B (UniProt P57060) -0.028
RPP30 (UniProt Q5VU11) -0.049
RUFY2 isoform 1 (UniProt Q8WXA3) -0.031
RRN3 (UniProt Q9NYV6) 0.06
RRBP1 isoform 3 (UniProt Q9P2E9) -0.044

Quoted at random: 2 records from the list, in no set order.
log2 fold change, inactive:
RRBP1 isoform 3 (UniProt Q9P2E9) -0.044
RPUSD1 (UniProt Q9UJJ7) 0.127
